PubChem BioAssay AID1508597 – Cure First – 2020
Shown is a random part of the about 2,100 reagents, in one setting of the screen. 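Calls flag viability under 80% in either arm, not effects specific to rucaparib; the reference for percent is not stated.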 Some reagents were tested in more than one well and are listed for each. Not given: the 100% reference.

- Screen: 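Genes whose silencing sensitises or protects ovarian cancer cells against rucaparib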 (primary screen)
- Cells: human ovarian carcinoma lines grown from tumours: OCI-P5x (papillary serous) and OCI-C5x (clear cell)
- Reagent: siRNA pool against human genes, 1.25 pmol siRNA per well
- Time to read-out: 72 h or 96 h, depending on the cell culture
- Treatment: rucaparib 20 µM (about IC30) or vehicle, present until read-out
- Rucaparib or vehicle: Vehicle
- Cell line: OCI-C5x (clear cell)
- Detection: 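Luminescent ATP-based viability assay read 72 or 96 h after transfection, depending on culture, given as normalised percent viability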
- Scale: viability, normalised: higher = more viable cells remaining
- Call rule: 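a well counts as a hit if its normalised viability is under 80 percent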
- Calls: active = viability under 80%; inactive = viability 80% or more

| Gene | technical replicate | viability, normalised (%) | call |
| --- | --- | --- | --- |
| GTF2H4 (general transcription factor IIH subunit 4) | 1 | 46 | active |
| GTF2H4 (general transcription factor IIH subunit 4) | 1 | 52.6 | active |
| GTF2H4 (general transcription factor IIH subunit 4) | 2 | 46.1 | active |
| GTF2H4 (general transcription factor IIH subunit 4) | 2 | 42.4 | active |
| GTF2H4 (general transcription factor IIH subunit 4) | 3 | 23.8 | active |
| GTF2H4 (general transcription factor IIH subunit 4) | 3 | 43.4 | active |
| CXXC5 (CXXC finger protein 5) | 1 | 43.4 | active |
| CXXC5 (CXXC finger protein 5) | 2 | 62.6 | active |
| CXXC5 (CXXC finger protein 5) | 3 | 44.7 | active |
| CHAF1A (chromatin assembly factor 1 subunit A) | 1 | 49.9 | active |
| CHAF1A (chromatin assembly factor 1 subunit A) | 1 | 33.6 | active |
| CHAF1A (chromatin assembly factor 1 subunit A) | 2 | 42.2 | active |
| CHAF1A (chromatin assembly factor 1 subunit A) | 2 | 37.3 | active |
| CHAF1A (chromatin assembly factor 1 subunit A) | 3 | 48.1 | active |
| CHAF1A (chromatin assembly factor 1 subunit A) | 3 | 27.3 | active |
| BARD1 (BRCA1 associated RING domain 1) | 1 | 64.9 | active |
| BARD1 (BRCA1 associated RING domain 1) | 2 | 58.1 | active |
| BARD1 (BRCA1 associated RING domain 1) | 3 | 48.2 | active |
| DAPK2 (death associated protein kinase 2) | 1 | 46.8 | active |
| DAPK2 (death associated protein kinase 2) | 2 | 40.7 | active |
| DAPK2 (death associated protein kinase 2) | 3 | 48 | active |

Copied from the list.
Under “viability, normalised (%)”, BARD1 (BRCA1 associated RING domain 1), technical replicate 1 has 64.9
BARD1 (BRCA1 associated RING domain 1), technical replicate 2, viability, normalised (%) = 58.1
Value of DAPK2 (death associated protein kinase 2), technical replicate 1 under “call”: active
Under “call”, DAPK2 (death associated protein kinase 2), technical replicate 2 is entered as active
Entry for DAPK2 (death associated protein kinase 2), technical replicate 3 under “call”: active
BARD1 (BRCA1 associated RING domain 1), technical replicate 3, viability, normalised (%) → 48.2

Further entries follow.
| Gene | technical replicate | viability, normalised (%) | call |
| --- | --- | --- | --- |
| SLC1A2 | 1 | 35.7 | active |
| SLC1A2 | 2 | 32.7 | active |
| SLC1A2 | 3 | 34.1 | active |
| DDX51 (DEAD-box helicase 51) | 1 | 32.1 | active |
| DDX51 (DEAD-box helicase 51) | 2 | 40.3 | active |
| DDX51 (DEAD-box helicase 51) | 3 | 38.3 | active |
| LATS2 (large tumor suppressor kinase 2) | 1 | 56.5 | active |
| LATS2 (large tumor suppressor kinase 2) | 2 | 62.6 | active |
| LATS2 (large tumor suppressor kinase 2) | 3 | 60 | active |
| SMARCAL1 (SNF2 related chromatin remodeling annealing helicase 1) | 1 | 37.8 | active |
| SMARCAL1 (SNF2 related chromatin remodeling annealing helicase 1) | 1 | 34.6 | active |
| SMARCAL1 (SNF2 related chromatin remodeling annealing helicase 1) | 2 | 45.4 | active |
| SMARCAL1 (SNF2 related chromatin remodeling annealing helicase 1) | 2 | 31.1 | active |
| SMARCAL1 (SNF2 related chromatin remodeling annealing helicase 1) | 3 | 44.1 | active |
| SMARCAL1 (SNF2 related chromatin remodeling annealing helicase 1) | 3 | 42.2 | active |
| CTSD (cathepsin D) | 1 | 55.5 | active |
| CTSD (cathepsin D) | 2 | 48 | active |
| CTSD (cathepsin D) | 3 | 53 | active |
| CHMP4B (charged multivesicular body protein 4B) | 1 | 64.9 | active |
| CHMP4B (charged multivesicular body protein 4B) | 2 | 78.6 | active |
| CHMP4B (charged multivesicular body protein 4B) | 3 | 66.8 | active |
| FLT3 (fms related receptor tyrosine kinase 3) | 1 | 59.1 | active |
| FLT3 (fms related receptor tyrosine kinase 3) | 2 | 49 | active |
| FLT3 (fms related receptor tyrosine kinase 3) | 3 | 48.5 | active |
| TBK1 (TANK binding kinase 1) | 1 | 61.4 | active |
| TBK1 (TANK binding kinase 1) | 2 | 57.1 | active |
| TBK1 (TANK binding kinase 1) | 3 | 43.9 | active |
| CEBPG (CCAAT enhancer binding protein gamma) | 1 | 41.1 | active |
| CEBPG (CCAAT enhancer binding protein gamma) | 2 | 41.9 | active |
| CEBPG (CCAAT enhancer binding protein gamma) | 3 | 67.4 | active |
| CAMK2A (calcium/calmodulin dependent protein kinase II alpha) | 1 | 68.2 | active |
| CAMK2A (calcium/calmodulin dependent protein kinase II alpha) | 2 | 55.2 | active |
| CAMK2A (calcium/calmodulin dependent protein kinase II alpha) | 3 | 57.7 | active |
| JADE3 (jade family PHD finger 3) | 1 | 50.7 | active |
| JADE3 (jade family PHD finger 3) | 2 | 49 | active |
| JADE3 (jade family PHD finger 3) | 3 | 63.6 | active |
